Results taken from the supplement of paper PMC10849652.
The list shows a part of the results.

Sequences of proteins named here, by UniProt entry; tags and fusion partners are left off. A change or cut given only in a name is not applied to a line headed by its entry.
UniProt P10620: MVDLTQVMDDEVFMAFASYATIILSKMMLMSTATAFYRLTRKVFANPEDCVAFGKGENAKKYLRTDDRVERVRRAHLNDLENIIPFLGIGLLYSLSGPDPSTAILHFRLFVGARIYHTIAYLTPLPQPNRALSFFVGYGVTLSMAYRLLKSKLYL
UniProt Q96HR3: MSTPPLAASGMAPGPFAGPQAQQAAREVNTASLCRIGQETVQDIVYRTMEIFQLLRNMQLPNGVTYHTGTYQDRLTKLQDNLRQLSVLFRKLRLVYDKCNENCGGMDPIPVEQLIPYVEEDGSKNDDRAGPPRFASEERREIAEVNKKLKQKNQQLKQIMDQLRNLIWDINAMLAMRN
UniProt Q9NR56: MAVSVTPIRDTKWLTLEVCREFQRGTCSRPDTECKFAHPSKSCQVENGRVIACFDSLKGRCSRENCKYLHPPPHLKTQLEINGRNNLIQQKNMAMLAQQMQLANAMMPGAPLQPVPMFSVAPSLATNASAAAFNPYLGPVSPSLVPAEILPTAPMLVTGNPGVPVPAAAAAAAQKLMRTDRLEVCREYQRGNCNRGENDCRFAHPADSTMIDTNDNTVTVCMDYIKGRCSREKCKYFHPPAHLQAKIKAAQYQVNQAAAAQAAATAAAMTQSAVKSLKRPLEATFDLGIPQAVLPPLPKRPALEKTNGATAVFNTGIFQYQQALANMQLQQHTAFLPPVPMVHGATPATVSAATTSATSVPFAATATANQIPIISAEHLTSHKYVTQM
UniProt Q71SY5: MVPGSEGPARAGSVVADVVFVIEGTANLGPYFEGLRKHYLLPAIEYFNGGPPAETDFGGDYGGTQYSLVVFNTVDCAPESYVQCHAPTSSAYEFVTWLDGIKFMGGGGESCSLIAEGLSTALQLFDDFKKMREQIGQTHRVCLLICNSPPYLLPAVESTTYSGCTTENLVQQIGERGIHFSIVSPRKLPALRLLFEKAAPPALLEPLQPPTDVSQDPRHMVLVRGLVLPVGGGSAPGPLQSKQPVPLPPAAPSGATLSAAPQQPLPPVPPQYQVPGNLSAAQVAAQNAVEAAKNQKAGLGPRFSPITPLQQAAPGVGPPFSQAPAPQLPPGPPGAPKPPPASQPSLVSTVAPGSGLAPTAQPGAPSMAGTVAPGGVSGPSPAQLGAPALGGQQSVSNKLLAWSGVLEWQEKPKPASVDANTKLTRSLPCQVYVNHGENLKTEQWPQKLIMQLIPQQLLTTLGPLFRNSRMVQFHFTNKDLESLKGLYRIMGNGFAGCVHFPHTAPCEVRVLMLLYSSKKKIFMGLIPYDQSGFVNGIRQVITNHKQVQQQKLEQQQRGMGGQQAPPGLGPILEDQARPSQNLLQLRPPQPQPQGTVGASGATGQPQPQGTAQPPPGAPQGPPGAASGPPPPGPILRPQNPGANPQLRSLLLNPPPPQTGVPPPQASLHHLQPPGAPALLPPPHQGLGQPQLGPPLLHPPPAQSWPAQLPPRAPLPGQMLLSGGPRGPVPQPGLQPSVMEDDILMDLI
UniProt Q08431: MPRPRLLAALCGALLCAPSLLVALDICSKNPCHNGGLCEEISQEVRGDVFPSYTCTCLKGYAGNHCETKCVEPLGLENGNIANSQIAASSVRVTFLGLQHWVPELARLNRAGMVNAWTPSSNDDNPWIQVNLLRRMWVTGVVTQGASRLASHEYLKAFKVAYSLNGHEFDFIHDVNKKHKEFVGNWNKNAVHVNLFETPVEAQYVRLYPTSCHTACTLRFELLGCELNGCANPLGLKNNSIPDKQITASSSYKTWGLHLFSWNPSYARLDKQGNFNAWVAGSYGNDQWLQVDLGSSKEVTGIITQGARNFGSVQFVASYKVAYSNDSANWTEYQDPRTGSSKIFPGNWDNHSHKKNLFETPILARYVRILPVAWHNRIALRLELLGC
UniProt Q93074, whole entry, looked up: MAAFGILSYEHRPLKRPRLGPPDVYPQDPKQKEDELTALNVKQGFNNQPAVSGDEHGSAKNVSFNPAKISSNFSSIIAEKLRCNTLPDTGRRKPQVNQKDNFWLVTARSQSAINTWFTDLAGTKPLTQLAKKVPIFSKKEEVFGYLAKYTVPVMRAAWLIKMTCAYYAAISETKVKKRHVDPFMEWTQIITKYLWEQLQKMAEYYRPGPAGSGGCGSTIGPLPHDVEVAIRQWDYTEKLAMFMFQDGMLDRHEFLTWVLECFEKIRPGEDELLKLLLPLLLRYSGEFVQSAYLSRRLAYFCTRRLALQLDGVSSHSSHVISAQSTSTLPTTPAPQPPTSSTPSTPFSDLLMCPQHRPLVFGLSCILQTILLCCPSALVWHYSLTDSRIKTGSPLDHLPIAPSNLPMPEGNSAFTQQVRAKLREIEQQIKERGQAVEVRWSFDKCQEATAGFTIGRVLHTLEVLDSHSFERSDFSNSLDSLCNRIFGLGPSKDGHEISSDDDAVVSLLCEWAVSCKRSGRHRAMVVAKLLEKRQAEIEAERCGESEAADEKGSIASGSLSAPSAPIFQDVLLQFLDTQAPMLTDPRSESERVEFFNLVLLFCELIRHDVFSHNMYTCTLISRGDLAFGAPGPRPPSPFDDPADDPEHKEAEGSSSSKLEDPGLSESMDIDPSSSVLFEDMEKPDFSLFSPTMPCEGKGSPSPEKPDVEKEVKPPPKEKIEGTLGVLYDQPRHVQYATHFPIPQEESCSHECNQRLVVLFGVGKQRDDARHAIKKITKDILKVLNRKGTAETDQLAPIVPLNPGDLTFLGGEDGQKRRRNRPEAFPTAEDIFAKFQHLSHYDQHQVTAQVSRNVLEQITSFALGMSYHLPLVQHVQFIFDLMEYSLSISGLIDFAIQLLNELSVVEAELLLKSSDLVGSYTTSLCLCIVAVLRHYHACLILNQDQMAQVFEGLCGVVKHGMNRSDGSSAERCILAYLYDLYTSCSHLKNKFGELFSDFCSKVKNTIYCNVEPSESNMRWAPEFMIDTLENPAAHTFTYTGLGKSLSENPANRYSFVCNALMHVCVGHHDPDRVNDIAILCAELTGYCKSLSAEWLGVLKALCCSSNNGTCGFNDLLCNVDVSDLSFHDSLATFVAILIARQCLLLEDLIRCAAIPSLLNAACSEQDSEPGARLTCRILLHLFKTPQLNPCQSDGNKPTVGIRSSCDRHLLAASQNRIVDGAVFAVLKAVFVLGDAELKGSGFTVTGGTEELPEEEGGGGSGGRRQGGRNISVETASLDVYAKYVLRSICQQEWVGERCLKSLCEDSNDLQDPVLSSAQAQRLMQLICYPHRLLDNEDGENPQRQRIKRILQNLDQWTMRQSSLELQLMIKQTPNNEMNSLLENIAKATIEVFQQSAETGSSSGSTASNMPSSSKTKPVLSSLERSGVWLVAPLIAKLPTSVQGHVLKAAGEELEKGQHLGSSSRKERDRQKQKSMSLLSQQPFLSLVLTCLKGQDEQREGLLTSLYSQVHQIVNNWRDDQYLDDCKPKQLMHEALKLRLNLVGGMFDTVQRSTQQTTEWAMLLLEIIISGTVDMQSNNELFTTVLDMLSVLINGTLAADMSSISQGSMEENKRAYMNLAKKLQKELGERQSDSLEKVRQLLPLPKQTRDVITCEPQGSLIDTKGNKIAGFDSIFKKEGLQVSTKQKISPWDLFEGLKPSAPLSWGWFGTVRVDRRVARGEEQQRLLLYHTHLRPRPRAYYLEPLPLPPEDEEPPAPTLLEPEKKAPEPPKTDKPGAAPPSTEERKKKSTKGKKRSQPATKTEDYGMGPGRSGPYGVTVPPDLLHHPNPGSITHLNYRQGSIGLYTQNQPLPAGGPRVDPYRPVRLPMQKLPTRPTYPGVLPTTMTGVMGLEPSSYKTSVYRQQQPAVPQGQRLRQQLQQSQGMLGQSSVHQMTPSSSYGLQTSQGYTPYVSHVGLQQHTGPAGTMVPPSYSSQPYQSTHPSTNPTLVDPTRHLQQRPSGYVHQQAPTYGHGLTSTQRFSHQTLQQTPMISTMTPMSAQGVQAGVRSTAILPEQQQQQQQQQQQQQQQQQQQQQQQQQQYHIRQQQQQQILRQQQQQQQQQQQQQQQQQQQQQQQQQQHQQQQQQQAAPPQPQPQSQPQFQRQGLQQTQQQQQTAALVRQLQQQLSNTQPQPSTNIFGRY
UniProt Q15528: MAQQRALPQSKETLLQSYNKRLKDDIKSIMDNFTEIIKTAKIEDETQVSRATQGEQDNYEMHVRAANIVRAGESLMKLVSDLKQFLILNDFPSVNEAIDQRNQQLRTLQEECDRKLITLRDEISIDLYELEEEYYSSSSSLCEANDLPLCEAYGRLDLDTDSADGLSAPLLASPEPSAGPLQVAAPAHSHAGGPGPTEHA
UniProt O95402: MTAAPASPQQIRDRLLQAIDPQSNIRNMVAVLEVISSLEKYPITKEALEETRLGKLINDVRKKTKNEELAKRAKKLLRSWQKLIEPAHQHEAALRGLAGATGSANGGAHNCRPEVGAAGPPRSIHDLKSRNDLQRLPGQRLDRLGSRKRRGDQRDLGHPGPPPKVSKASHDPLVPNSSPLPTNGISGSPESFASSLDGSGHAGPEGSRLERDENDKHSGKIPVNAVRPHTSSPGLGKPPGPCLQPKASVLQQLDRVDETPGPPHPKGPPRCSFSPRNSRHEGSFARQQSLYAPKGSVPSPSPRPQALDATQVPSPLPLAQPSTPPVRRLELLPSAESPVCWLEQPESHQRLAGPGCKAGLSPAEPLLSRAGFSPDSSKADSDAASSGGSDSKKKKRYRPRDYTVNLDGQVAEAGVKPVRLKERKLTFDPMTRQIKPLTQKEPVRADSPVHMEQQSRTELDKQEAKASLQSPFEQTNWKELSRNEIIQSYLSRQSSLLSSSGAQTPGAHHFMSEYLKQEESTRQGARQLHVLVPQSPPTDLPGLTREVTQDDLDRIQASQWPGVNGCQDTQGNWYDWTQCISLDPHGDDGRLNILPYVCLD
UniProt Q8TDD5: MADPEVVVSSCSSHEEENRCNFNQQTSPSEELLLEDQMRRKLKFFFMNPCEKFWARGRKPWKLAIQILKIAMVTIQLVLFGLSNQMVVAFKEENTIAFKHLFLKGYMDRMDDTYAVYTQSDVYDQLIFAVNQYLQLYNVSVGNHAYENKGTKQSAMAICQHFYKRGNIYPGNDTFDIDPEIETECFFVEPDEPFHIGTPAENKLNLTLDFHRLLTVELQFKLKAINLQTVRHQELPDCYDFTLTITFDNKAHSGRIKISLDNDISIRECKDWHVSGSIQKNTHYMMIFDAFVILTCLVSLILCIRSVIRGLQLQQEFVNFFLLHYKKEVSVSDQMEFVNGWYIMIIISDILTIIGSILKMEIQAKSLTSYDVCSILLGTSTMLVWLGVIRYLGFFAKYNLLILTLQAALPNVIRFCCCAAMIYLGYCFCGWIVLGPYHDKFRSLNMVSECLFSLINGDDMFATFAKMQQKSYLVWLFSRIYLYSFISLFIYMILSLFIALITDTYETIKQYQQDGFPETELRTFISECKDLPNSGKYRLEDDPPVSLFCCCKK
UniProt Q9H1U4: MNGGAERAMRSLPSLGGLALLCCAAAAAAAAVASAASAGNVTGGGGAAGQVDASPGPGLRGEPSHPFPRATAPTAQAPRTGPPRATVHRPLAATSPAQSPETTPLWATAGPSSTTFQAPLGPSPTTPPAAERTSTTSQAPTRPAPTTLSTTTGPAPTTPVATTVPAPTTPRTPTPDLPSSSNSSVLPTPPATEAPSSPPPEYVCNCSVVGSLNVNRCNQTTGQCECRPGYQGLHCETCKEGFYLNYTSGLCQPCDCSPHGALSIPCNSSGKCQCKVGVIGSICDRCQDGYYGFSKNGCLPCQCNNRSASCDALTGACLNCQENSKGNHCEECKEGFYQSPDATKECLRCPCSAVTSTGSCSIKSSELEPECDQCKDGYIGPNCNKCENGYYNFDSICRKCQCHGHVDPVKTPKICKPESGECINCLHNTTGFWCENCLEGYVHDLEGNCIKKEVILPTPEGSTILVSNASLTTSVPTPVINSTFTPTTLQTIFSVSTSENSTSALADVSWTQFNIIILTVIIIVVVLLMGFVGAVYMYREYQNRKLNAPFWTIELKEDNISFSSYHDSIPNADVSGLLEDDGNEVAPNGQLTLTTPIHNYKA
UniProt Q6P2C8: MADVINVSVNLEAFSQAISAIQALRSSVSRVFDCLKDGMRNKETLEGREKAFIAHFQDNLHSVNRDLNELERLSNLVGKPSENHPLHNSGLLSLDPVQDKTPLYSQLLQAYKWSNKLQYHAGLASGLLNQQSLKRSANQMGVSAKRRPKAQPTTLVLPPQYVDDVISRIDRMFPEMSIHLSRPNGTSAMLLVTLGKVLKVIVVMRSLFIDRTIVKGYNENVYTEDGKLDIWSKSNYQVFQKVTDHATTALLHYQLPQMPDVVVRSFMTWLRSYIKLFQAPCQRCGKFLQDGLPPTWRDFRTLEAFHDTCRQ

What was measured:
Experiment in all cases: log2 fold change, soluble protein after heating vs DMSO (PISA); higher = thermal stabilisation; K562 cells, 10 uM, 30 min; active = over 0.2 and 3.5 SD of the protein, either way, in both replicates (recomputed)
[1] = compound: COC1=CC=C(C=C1)CN2C=CC3=C2C=C(C=C3)C(=O)NO
Outline: (§1)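 Soluble protein was defined as the supernatant after 21,000xg for 90 min. It came from K562 cells at 2×10^6 cells/mL given 10 μM compound for 30 min, heated in aliquots for 3 min across 48°C-58°C, pooled, and extracted in PBS with 0.5% NP-40 at 4°C, and was quantified by TMTpro 16plex LC-MS/MS with equalised channel sums. Thermal stability against control samples, from duplicates, is reported as log2 fold change.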

filanesib = compound: CON(C)C(=O)N1N=C(c2cc(F)ccc2F)S[C@@]1(CCCN)c1ccccc1 [filanesib]
Outline: as §1

idasanutlin = compound: COc1cc(C(=O)O)ccc1NC(=O)[C@@H]1N[C@@H](CC(C)(C)C)[C@](C#N)(c2ccc(Cl)cc2F)[C@H]1c1cccc(Cl)c1F [idasanutlin]
Outline: as §1

alisertib = compound: COc1cc(Nc2ncc3c(n2)-c2ccc(Cl)cc2C(c2c(F)cccc2OC)=NC3)ccc1C(=O)O [alisertib]
Outline: as §1

gefitinib = compound: COc1cc2ncnc(Nc3ccc(F)c(Cl)c3)c2cc1OCCCN1CCOCC1 [gefitinib]
Outline: as §1

[2] = compound: COc1cccc2cc(-c3nc([C@H]4CC[C@H](C(=O)O)CC4)n4ncnc(N)c34)[nH]c12
Outline: as §1

pictilisib = compound: CS(=O)(=O)N1CCN(Cc2cc3nc(-c4cccc5[nH]ncc45)nc(N4CCOCC4)c3s2)CC1 [pictilisib]
Outline: as §1

[3] = compound: CS(=O)(=O)c1ccc(-c2cnc(N)c(C(=O)Nc3ccccc3)n2)cc1
Outline: as §1

crizotinib = compound: C[C@@H](Oc1cc(-c2cnn(C3CCNCC3)c2)cnc1N)c1c(Cl)ccc(F)c1Cl [crizotinib]
Outline: as §1

[4] = compound: C[C@@H]1COCCN1C2=NC(=NC(=C2)C3(CC3)S(=O)(=O)C)C4=C5C=CNC5=CC=C4
Outline: as §1

duvelisib = compound: C[C@H](Nc1ncnc2nc[nH]c12)c1cc2cccc(Cl)c2c(=O)n1-c1ccccc1 [duvelisib]
Outline: as §1

gandotinib = compound: Cc1cc(Nc2cc(CN3CCOCC3)c3nc(C)c(Cc4ccc(Cl)cc4F)n3n2)n[nH]1 [gandotinib]
Outline: as §1

tozasertib = compound: Cc1cc(Nc2cc(N3CCN(C)CC3)nc(Sc3ccc(NC(=O)C4CC4)cc3)n2)n[nH]1 [tozasertib]
Outline: as §1

[5] = compound: Cc1cc(SCc2sc(-c3ccc(C(F)(F)F)cc3)nc2C)ccc1OCC(=O)O
Outline: as §1

doramapimod = compound: Cc1ccc(-n2nc(C(C)(C)C)cc2NC(=O)Nc2ccc(OCCN3CCOCC3)c3ccccc23)cc1 [doramapimod]
Outline: as §1

ispinesib = compound: Cc1ccc(C(=O)N(CCCN)[C@@H](c2nc3cc(Cl)ccc3c(=O)n2Cc2ccccc2)C(C)C)cc1 [ispinesib]
Outline: as §1

zotarolimus = compound: CO[C@H]1C[C@@H]2CC[C@@H](C)[C@@](O)(O2)C(=O)C(=O)N2CCCC[C@H]2C(=O)O[C@H]([C@H](C)C[C@@H]2CC[C@H](n3cnnn3)[C@H](OC)C2)CC(=O)[C@H](C)/C=C(\C)[C@@H](O)[C@@H](OC)C(=O)[C@H](C)C[C@H](C)/C=C/C=C/C=C/1C [zotarolimus]
Outline: as §1

[6] = compound: COc1cc2nc(-c3cc(F)ccc3O)nc(N[C@@H]3CNC[C@H]3C(C)(C)O)c2cc1OC
Outline: as §1

lapatinib = compound: CS(=O)(=O)CCNCc1ccc(-c2ccc3ncnc(Nc4ccc(OCc5cccc(F)c5)c(Cl)c4)c3c2)o1 [lapatinib]
Outline: as §1

[7] = compound: C[C@H](C1=CC=C(C=C1)C(=O)NC2=C3C=CNC3=NC=C2)N
Outline: as §1

Measured: log2 fold change

MATR3 (UniProt P43243)
inactive: [1] 0 | filanesib 0.135 | idasanutlin 0.316 | alisertib -0.244 | gefitinib 0.168 | [2] 0.421 | pictilisib -0.017 | [3] -0.104 | crizotinib 0.011 | [4] -0.003 | duvelisib 0.227 | gandotinib 0.139 | tozasertib 0.037 | [5] 0.019 | doramapimod 0.12 | ispinesib -0.428

MGST1 (UniProt P10620)
active: [7] -0.257
inactive: [1] 0.039 | filanesib -0.019 | zotarolimus 0.006 | idasanutlin -0.06 | alisertib 0.013 | [6] 0.152 | gefitinib -0.036 | [2] -0.043 | lapatinib -0.009 | pictilisib 0.112 | [3] -0.006 | crizotinib 0.152 | [4] -0.01 | gandotinib 0.044 | [5] -0.123 | doramapimod -0.053 | ispinesib -0.027

MED30 (UniProt Q96HR3)
inactive: [1] -0.054 | filanesib 0.109 | zotarolimus 0.067 | idasanutlin -0.016 | alisertib -0.038 | [6] -0.051 | gefitinib 0 | [2] 0.159 | lapatinib 0.091 | [3] -0.084 | crizotinib -0.021 | [4] -0.024 | [7] -0.032 | duvelisib -0.025 | tozasertib 0.02 | [5] 0.037 | doramapimod -0.035 | ispinesib 0.044

2 successive entries from above:
MATR3 (UniProt P43243)
inactive: [1] 0 | filanesib 0.135 | idasanutlin 0.316 | alisertib -0.244 | gefitinib 0.168 | [2] 0.421 | pictilisib -0.017 | [3] -0.104 | crizotinib 0.011 | [4] -0.003 | duvelisib 0.227 | gandotinib 0.139 | tozasertib 0.037 | [5] 0.019 | doramapimod 0.12 | ispinesib -0.428

MGST1 (UniProt P10620)
active: [7] -0.257
inactive: [1] 0.039 | filanesib -0.019 | zotarolimus 0.006 | idasanutlin -0.06 | alisertib 0.013 | [6] 0.152 | gefitinib -0.036 | [2] -0.043 | lapatinib -0.009 | pictilisib 0.112 | [3] -0.006 | crizotinib 0.152 | [4] -0.01 | gandotinib 0.044 | [5] -0.123 | doramapimod -0.053 | ispinesib -0.027

Carrying on:

MBNL1 isoform 5 (UniProt Q9NR56)
inactive: [1] 0.091 | filanesib -0.142 | alisertib -0.038 | gefitinib 0.013 | [2] -0.02 | [3] 0.003 | crizotinib -0.005 | [4] -0.187 | tozasertib 0.03 | doramapimod -0.073 | ispinesib 0.106

MED25 isoform 3 (UniProt Q71SY5)
inactive: [1] -0.015 | filanesib -0.018 | zotarolimus 0.136 | idasanutlin 0.004 | alisertib 0.048 | [6] -0.01 | gefitinib 0.093 | [2] -0.285 | lapatinib -0.03 | pictilisib 0.103 | [3] 0.061 | crizotinib 0.021 | [7] 0 | gandotinib 0.19 | [5] 0.162 | doramapimod 0.085 | ispinesib -0.018

MFGE8 (UniProt Q08431)
inactive: [1] -0.129 | filanesib 0.129 | zotarolimus -0.03 | idasanutlin 0.05 | alisertib -0.147 | [6] 0.019 | gefitinib 0.069 | [2] -0.124 | lapatinib 0.079 | pictilisib 0.122 | [3] 0.063 | crizotinib 0.04 | [4] -0.129 | [7] 0.087 | gandotinib -0.015 | [5] 0.057 | doramapimod 0.046 | ispinesib -0.122

MED12 isoform 2 (UniProt Q93074)
inactive: [1] 0.093 | filanesib 0.256 | idasanutlin 0.103 | alisertib 0.214 | [6] -0.09 | gefitinib 0.024 | [2] 0.007 | lapatinib 0.028 | pictilisib -0.113 | [3] -0.088 | crizotinib -0.088 | [4] 0.207 | gandotinib -0.009 | [5] 0.048 | doramapimod 0.095 | ispinesib -0.117

MED22 (UniProt Q15528)
inactive: [1] -0.03 | filanesib -0.008 | zotarolimus 0.047 | idasanutlin -0.023 | alisertib 0.019 | gefitinib 0.017 | [2] -0.171 | [3] 0.013 | crizotinib -0.082 | [4] 0.027 | [7] 0.027 | [5] 0.049 | doramapimod 0.027 | ispinesib -0.098

MED26 (UniProt O95402)
inactive: [1] 0.045 | filanesib -0.027 | zotarolimus 0.044 | idasanutlin -0.1 | [6] -0.013 | lapatinib -0.035 | pictilisib -0.109 | [3] 0.113 | crizotinib -0.095 | [7] -0.185 | duvelisib 0.013 | gandotinib -0.149 | [5] -0.052 | doramapimod 0.135 | ispinesib -0.004

MCOLN3 (UniProt Q8TDD5)
inactive: alisertib 0.058 | [6] 0.068 | gefitinib -0.04 | [2] -0.035 | lapatinib -0.02 | pictilisib 0.044 | gandotinib 0.022 | ispinesib -0.255

MEGF9 (UniProt Q9H1U4)
inactive: filanesib -0.029 | zotarolimus 0.159 | pictilisib 0.131 | [3] 0.035 | [7] 0.225 | gandotinib 0.042 | tozasertib -0.059

MED27 (UniProt Q6P2C8)
inactive: filanesib 0.104 | zotarolimus -0.016 | idasanutlin 0.028 | alisertib 0.072 | gefitinib -0.096 | [2] 0.151 | pictilisib -0.083 | [3] 0.06 | [4] 0.053 | [7] -0.031 | duvelisib 0.09 | gandotinib 0.061 | [5] -0.009
